From PubChem BioAssay AID328 (DTP/NCI, 2004)
The list is a part of this screen's results and no random one: it gathers tests that were run many times, whatever their T/C, doses with no T/C, and many T/C values between a quarter and a half above the control. Further doses and runs are listed elsewhere. T/C gives the treated animals as a percentage of the vehicle group. Some doses have a count of surviving animals in place of a T/C: the source holds a T/C of zero for them, seemingly a mark for toxic or unscored doses. Some doses without a T/C left all or most animals alive at the check, yet need not have been tolerated: survival well below the control is almost never listed, so the zero probably covers shortened survival too. Counts of survivors are from the toxicity check (mostly the fifth day) where no day follows; animals may have died later. Schedules are NCI's codes, taken here to give the interval after Q, in days (D) or hours (H), and the number of doses after X. Some schedules carry Z or #; the key to these is not given. Some doses were run more than once; the values are given in rising order. Where survival is the endpoint, the PubChem record calls one and a half times the control and up active, and a quarter to a half above the control has no call in these data; cut-offs in other NCI protocols can differ. Brackets with × stand for listed records that agree. Some T/C values carry the count of animals alive at the toxicity check (mostly the fifth day); without a count, all were alive then.

Tested on: BDF1 mice, P388 leukemia ip, median survival T/C
Assay: NCI In Vivo Anticancer Drug Screen. Data for tumor model P388 Leukemia (intraperitoneal) in B6D2F1 (BDF1) mice
Details: T/C endpoint: median survival time, higher T/C = longer survival
Method in brief: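 Compound-treated tumour-bearing mice were compared with vehicle-treated controls. Survival was recorded, and the value is the treated-group measurement divided by the control-group measurement (T/C).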

[1] = dose: 400.0 mg/kg/injection, schedule: Q01DX009 (ip), vehicle: Klucel (hydroxypropylcellulose) (HPC)
[2] = dose: 50.0 mg/kg/injection, schedule: Q01DX009 (ip), vehicle: saline with Tween-80
[3] = dose: 100.0 mg/kg/injection, schedule: Q01DX009 (ip), vehicle: saline with Tween-80
[4] = dose: 200.0 mg/kg/injection, schedule: Q01DX009 (ip), vehicle: saline with Tween-80
[5] = dose: 100.0 mg/kg/injection, schedule: Q01DX009 (ip), vehicle: Klucel (hydroxypropylcellulose) (HPC)
[6] = dose: 400.0 mg/kg/injection, schedule: Q04DX003 (ip), vehicle: Klucel (hydroxypropylcellulose) (HPC)

Nc1ccn(CC(=O)c2ccc(Cl)s2)c(=O)n1
survivor count (dose: 400.0 mg/kg/injection, schedule: Q01DX009 (ip), vehicle: water): 4 of 6

COC1CCC(C=O)C(C#N)(C#N)C1(C#N)C#N (stereo not given)
survivor count (dose: 200.0 mg/kg/injection, schedule: Q01DX001 (ip), vehicle: saline with Tween-80): 1 of 6

CCCCCCCCCCCCCCCC(=O)N1CCC(N2CCCCC2)CC1
survivor count (dose: 100.0 mg/kg/injection, schedule: Q01DX001 (ip), vehicle: Klucel (hydroxypropylcellulose) (HPC)): 6 of 6

O=[N+]([O-])c1ccc(N/N=C\c2ccc3ccccc3n2)cc1
survivor count (dose: 400.0 mg/kg/injection, schedule: Q01DX009 (ip), vehicle: saline): 6 of 6

C=C1C(C)C2C(Cc3ccccc3)NC(=O)C23C(OC(C)=O)C=CC(C)(O)C(=O)C(C)C/C=C/C3C1O (stereo not given)
T/C (dose: 2.5 mg/kg/injection, schedule: Q01DX009 (ip), vehicle: saline with Tween-80): 130 % of control | survivor count (dose: 3.7 mg/kg/injection, schedule: Q01DX009 (ip), vehicle: saline): 6 of 6 | survivor count (dose: 5.0 mg/kg/injection, schedule: Q01DX009 (ip), vehicle: saline with Tween-80): 1 of 6

CCCn1cnc2c(SCc3ccccc3Cl)nc(N)nc21
survivor count [1]: 6 of 6

CC(=O)OS(C)(=O)=O
survivor count (dose: 200.0 mg/kg/injection, schedule: Q04DX003 (ip), vehicle: saline): 3 of 6 | survivor count (dose: 400.0 mg/kg/injection, schedule: Q04DX003 (ip), vehicle: saline): 1 of 6

COc1ccc(CN(CCOC(=O)c2ccc(OC)cc2)CCN(CCOC(=O)c2ccc(OC)cc2)Cc2ccc(OC)cc2)cc1
T/C (dose: 50.0 mg/kg/injection, schedule: Q04DX003 (ip), vehicle: water, evaluated on day 20): 90 % of control | T/C (dose: 50.0 mg/kg/injection, schedule: Q04DX003 (ip), vehicle: water, evaluated on day 30): 93 and 100 % of control | T/C (dose: 50.0 mg/kg/injection, schedule: Q04DX003 (ip), vehicle: water, evaluated on day 31): 95 % of control | T/C (dose: 100.0 mg/kg/injection, schedule: Q01DX009 (ip), vehicle: water): 127 % of control | T/C (dose: 100.0 mg/kg/injection, schedule: Q04DX003 (ip), vehicle: water, evaluated on day 20): 86 % of control | T/C (dose: 100.0 mg/kg/injection, schedule: Q04DX003 (ip), vehicle: water, evaluated on day 30): 100 and 101 % of control | T/C (dose: 100.0 mg/kg/injection, schedule: Q04DX003 (ip), vehicle: water, evaluated on day 31): 128 % of control | T/C (dose: 200.0 mg/kg/injection, schedule: Q04DX003 (ip), vehicle: water, evaluated on day 20): 108 % of control [5 of 6 alive] | T/C (dose: 200.0 mg/kg/injection, schedule: Q04DX003 (ip), vehicle: water, evaluated on day 30): 97 and 105 % of control | T/C (dose: 200.0 mg/kg/injection, schedule: Q04DX003 (ip), vehicle: water, evaluated on day 31): 266 % of control | T/C (dose: 400.0 mg/kg/injection, schedule: Q04DX003 (ip), vehicle: water, evaluated on day 20): 88 % of control | T/C (dose: 400.0 mg/kg/injection, schedule: Q04DX003 (ip), vehicle: water, evaluated on day 30): 97 and 98 % of control | T/C (dose: 400.0 mg/kg/injection, schedule: Q04DX003 (ip), vehicle: water, evaluated on day 31): 95 % of control

COC(=O)c1ccc(CSc2ccccc2NC(=S)Nc2cccc(C(F)(F)F)c2)o1
survivor count [2]: 6 of 6 | survivor count [3]: 6 of 6

O=S1(=O)C=C(c2ccccc2)C1
survivor count [4]: 1 of 6

CC1([CH2][Hg][I])COCC([CH2][Hg][I])O1 (stereo not given)
survivor count (dose: 23.0 mg/kg/injection, schedule: Q01DX009 (ip), vehicle: saline): 0 of 6 | survivor count (dose: 40.0 mg/kg/injection, schedule: Q04DX003 (ip), vehicle: saline): 3 of 6

O=C(CO)c1ccc([N+](=O)[O-])cc1
T/C (dose: 6.25 mg/kg/injection, schedule: Q01DX009 (ip), vehicle: saline with Tween-80): 126 % of control | T/C (dose: 12.5 mg/kg/injection, schedule: Q01DX009 (ip), vehicle: saline with Tween-80): 126 and 130 % of control | T/C (dose: 25.0 mg/kg/injection, schedule: Q01DX009 (ip), vehicle: saline with Tween-80): 126 % of control (2×) | T/C [2]: 128 and 133 % of control [4 of 6 alive] | survivor count [3]: 0 of 6 and 6 of 6 | survivor count [4]: 0 of 6

Nc1nc(N)c(Nc2ccc(Cl)cc2)c(Cl)n1
survivor count (dose: 400.0 mg/kg/injection, schedule: Q01DX001 (ip), vehicle: saline with Tween-80): 0 of 6

CNc1ccc(/C=C2\C=Cc3ccccc32)cc1
survivor count (dose: 50.0 mg/kg/injection, schedule: Q01DX009 (ip), vehicle: Klucel (hydroxypropylcellulose) (HPC)): 6 of 6 | survivor count [5]: 6 of 6 | survivor count (dose: 100.0 mg/kg/injection, schedule: Q04DX003 (ip), vehicle: Klucel (hydroxypropylcellulose) (HPC)): 5 of 6 | survivor count (dose: 200.0 mg/kg/injection, schedule: Q01DX009 (ip), vehicle: Klucel (hydroxypropylcellulose) (HPC)): 3 of 6 | survivor count (dose: 200.0 mg/kg/injection, schedule: Q04DX003 (ip), vehicle: Klucel (hydroxypropylcellulose) (HPC)): 1 of 6 and 4 of 6 | survivor count [6]: 0 of 6 and 1 of 6

O=C(c1ccccc1Cl)c1cccc2ccccc12
T/C (dose: 265.0 mg/kg/injection, schedule: Q04DX003 (ip), vehicle: Klucel (hydroxypropylcellulose) (HPC)): 127 % of control

CCCCCCCCCC[N+](C)(C)CC(O)C[N+](C)(C)CCCCCCCCCC
survivor count [2]: 0 of 6 | survivor count [3]: 0 of 6 | survivor count [4]: 0 of 6

CC[C@H](CC[C@@H](C)[C@H]1CC[C@H]2[C@@H]3CC=C4C[C@@H](OC(=O)CSC(CC(=O)O)C(=O)O)CC[C@]4(C)[C@H]3CC[C@]12C)C(C)C (stereo not given in full)
survivor count [1]: 5 of 6

O=C1C=C(N2CC2)c2ccccc2C1=O
T/C (dose: 22.0 mg/kg/injection, schedule: Q04DX003 (ip), vehicle: saline with Tween-80): 127 % of control | survivor count (dose: 33.0 mg/kg/injection, schedule: Q04DX003 (ip), vehicle: saline with Tween-80): 2 of 6 | survivor count (dose: 37.5 mg/kg/injection, schedule: Q04DX003 (ip), vehicle: saline with Tween-80): 0 of 6 | survivor count (dose: 40.0 mg/kg/injection, schedule: Q01DX009 (ip), vehicle: Klucel (hydroxypropylcellulose) (HPC)): 0 of 6 | survivor count (dose: 50.0 mg/kg/injection, schedule: Q04DX003 (ip), vehicle: saline with Tween-80): 1 of 6 | survivor count (dose: 75.0 mg/kg/injection, schedule: Q04DX003 (ip), vehicle: saline with Tween-80): 0 of 6

C=C(C)C12OC3(c4ccccc4)OC1C1C4OC4(CO)C(O)C4(O)C(=O)C(C)=CC4C1(O3)C(C)C2OC(=O)/C=C/C=C/CCCCC (stereo not given)
T/C (dose: 50.0 micrograms/kg/injection, schedule: Q## X009 (ip), vehicle: saline + alcohol): 127 % of control | survivor count (dose: 100.0 micrograms/kg/injection, schedule: Q## X009 (ip), vehicle: saline + alcohol): 5 of 6 | survivor count (dose: 400.0 micrograms/kg/injection, schedule: Q## X009 (ip), vehicle: saline + alcohol): 4 of 6

Cc1ccc(C)c(CCCC(=O)O)c1
survivor count (dose: 400.0 mg/kg/injection, schedule: Q01DX009 (ip), vehicle: saline with Tween-80): 1 of 6

O=[N+]([O-])c1ccccc1N/N=C\c1c(Cl)[nH]c2ccccc12
survivor count (dose: 100.0 mg/kg/injection, schedule: Q04DX002 (ip), vehicle: Klucel (hydroxypropylcellulose) (HPC)): 6 of 6

CC(=O)C(=O)NC1/C=C(C)\C=C/C(O)C/C=C(C)\C=C/C(O)CC2OC(=O)C1(C)C(=O)C2C (stereo not given)
T/C (dose: 75.0 mg/kg/injection, schedule: Q01DX009 (ip), vehicle: Klucel (hydroxypropylcellulose) (HPC)): 125 % of control | T/C [5]: 129 and 146 % of control | survivor count [5]: 3 of 3 | T/C (dose: 125.0 mg/kg/injection, schedule: Q01DX009 (ip), vehicle: Klucel (hydroxypropylcellulose) (HPC)): 129 % of control | T/C (dose: 150.0 mg/kg/injection, schedule: Q01DX009 (ip), vehicle: Klucel (hydroxypropylcellulose) (HPC)): 135 % of control | survivor count [1]: 3 of 3

C[C@@H]1C[C@H]2C(=CC1=O)CC[C@@H]1[C@@H]2CC[C@@]2(C)[C@H]1CC[C@]2(C)O
survivor count [6]: 1 of 6

O=C1C=C(Nc2ccc(F)cc2)C(Nc2ccc(F)cc2)=CC1=O
survivor count (dose: 175.0 mg/kg/injection, schedule: Q01DX009 (ip), vehicle: saline with Tween-80): 7 of 7
